Laboratory results as given in the supplement of paper PMC8728848.
The other results are listed elsewhere or left out.

How the values were obtained:
Assay in all cases: glycan array binding signal (z-score within array); higher = stronger binding
Settings in all cases: glycan notation: IUPAC condensed, linker removed
[1] = molecular target: Gal(b1-4)Glc
In short: (§1)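 Arrays were curated from the Consortium for Functional Glycomics database, 3228 in total, and kept only where the protein sequence was available. Binding is expressed as a within-array Z-score. This score was averaged across arrays of the same protein sequence at different concentrations or buffers and across linkers, and negative values can be read as non-binding.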

[2] = molecular target: Gal(b1-4)Glc6S
In short: as §1

[3] = molecular target: Gal(b1-4)GlcNAc
In short: as §1

[4] = molecular target: Gal(b1-4)GlcNAc(a1-6)Gal(b1-4)GlcNAc
In short: as §1

[5] = molecular target: Gal(b1-4)GlcNAc(b1-2)Man
In short: as §1

[6] = molecular target: Gal(b1-4)GlcNAc(b1-2)Man(a1-3)Man(b1-4)GlcNAc(b1-4)GlcNAc
In short: as §1

[7] = molecular target: Gal(b1-4)GlcNAc(b1-2)Man(a1-3)[Gal(b1-4)GlcNAc(b1-2)Man(a1-6)]Man(b1-4)GlcNAc(b1-4)GlcNAc
In short: as §1

[8] = molecular target: Gal(b1-4)GlcNAc(b1-2)Man(a1-3)[Gal(b1-4)GlcNAc(b1-2)Man(a1-6)]Man(b1-4)GlcNAc(b1-4)[Fuc(a1-6)]GlcNAc
In short: as §1

[9] = molecular target: Gal(b1-4)GlcNAc(b1-2)Man(a1-3)[Gal(b1-4)GlcNAc(b1-2)Man(a1-6)][Gal(b1-4)GlcNAc(b1-4)]Man(b1-4)GlcNAc(b1-4)[Fuc(a1-6)]GlcNAc
In short: as §1

[10] = molecular target: Gal(b1-4)GlcNAc(b1-2)Man(a1-3)[Gal(b1-4)GlcNAc(b1-2)Man(a1-6)][GlcNAc(b1-4)]Man(b1-4)GlcNAc(b1-4)[Fuc(a1-6)]GlcNAc
In short: as §1

[11] = molecular target: Gal(b1-4)GlcNAc(b1-2)Man(a1-3)[GlcNAc(b1-2)Man(a1-6)]Man(b1-4)GlcNAc(b1-4)GlcNAc
In short: as §1

[12] = molecular target: Gal(b1-4)GlcNAc(b1-2)Man(a1-3)[GlcNAc(b1-4)][Gal(b1-4)GlcNAc(b1-2)Man(a1-6)]Man(b1-4)GlcNAc(b1-4)GlcNAc
In short: as §1

[13] = molecular target: Gal(b1-4)GlcNAc(b1-2)Man(a1-3)[Man(a1-6)]Man(b1-4)GlcNAc(b1-4)GlcNAc
In short: as §1

[14] = molecular target: Gal(b1-4)GlcNAc(b1-2)Man(a1-6)Man(b1-4)GlcNAc(b1-4)GlcNAc
In short: as §1

[15] = molecular target: Gal(b1-4)GlcNAc(b1-2)Man(a1-6)[GlcNAc(b1-2)Man(a1-3)]Man(b1-4)GlcNAc(b1-4)GlcNAc
In short: as §1

[16] = molecular target: Gal(b1-4)GlcNAc(b1-2)Man(a1-6)[Man(a1-3)]Man(b1-4)GlcNAc(b1-4)GlcNAc
In short: as §1

[17] = molecular target: Gal(b1-4)GlcNAc(b1-2)[Gal(b1-4)GlcNAc(b1-4)]Man(a1-3)[Gal(b1-4)GlcNAc(b1-2)Man(a1-6)]Man(b1-4)GlcNAc(b1-4)GlcNAc
In short: as §1

[18] = molecular target: Gal(b1-4)GlcNAc(b1-2)[Gal(b1-4)GlcNAc(b1-4)]Man(a1-3)[Gal(b1-4)GlcNAc(b1-2)[Gal(b1-4)GlcNAc(b1-6)]Man(a1-6)]Man(b1-4)GlcNAc(b1-4)GlcNAc
In short: as §1

[19] = molecular target: Gal(b1-4)GlcNAc(b1-2)[Gal(b1-4)GlcNAc(b1-4)]Man(a1-3)[GlcNAc(b1-4)][Gal(b1-4)GlcNAc(b1-2)Man(a1-6)]Man(b1-4)GlcNAc(b1-4)GlcNAc
In short: as §1

[20] = molecular target: Gal(b1-4)GlcNAc(b1-2)[Gal(b1-4)GlcNAc(b1-4)]Man(a1-3)[GlcNAc(b1-4)][Gal(b1-4)GlcNAc(b1-2)[Gal(b1-4)GlcNAc(b1-6)]Man(a1-6)]Man(b1-4)GlcNAc(b1-4)GlcNAc
In short: as §1

[21] = molecular target: Gal(b1-4)GlcNAc(b1-2)[Gal(b1-4)GlcNAc(b1-6)]Man(a1-6)[Gal(b1-4)GlcNAc(b1-2)Man(a1-3)]Man(b1-4)GlcNAc(b1-4)GlcNAc
In short: as §1

[22] = molecular target: Gal(b1-4)GlcNAc(b1-2)[Gal(b1-4)GlcNAc(b1-6)]Man(a1-6)[Gal(b1-4)GlcNAc(b1-2)Man(a1-3)]Man(b1-4)GlcNAc(b1-4)[Fuc(a1-6)]GlcNAc
In short: as §1

[23] = molecular target: Gal(b1-4)GlcNAc(b1-2)[Gal(b1-4)GlcNAc(b1-6)]Man(a1-6)[GlcNAc(b1-4)][Gal(b1-4)GlcNAc(b1-2)Man(a1-3)]Man(b1-4)GlcNAc(b1-4)GlcNAc
In short: as §1

[24] = molecular target: Gal(b1-4)GlcNAc(b1-2)[Gal(b1-4)GlcNAc(b1-6)]Man(a1-6)[GlcNAc(b1-4)][Gal(b1-4)GlcNAc(b1-2)[Gal(b1-4)GlcNAc(b1-4)]Man(a1-3)]Man(b1-4)GlcNAc(b1-4)[Fuc(a1-6)]GlcNAc
In short: as §1

[25] = molecular target: Gal(b1-4)GlcNAc(b1-3)Gal(b1-3)GalNAc
In short: as §1

[26] = molecular target: Gal(b1-4)GlcNAc(b1-3)Gal(b1-3)GlcNAc
In short: as §1

[27] = molecular target: Gal(b1-4)GlcNAc(b1-3)Gal(b1-4)Glc
In short: as §1

[28] = molecular target: Gal(b1-4)GlcNAc(b1-3)Gal(b1-4)GlcNAc
In short: as §1

[29] = molecular target: Gal(b1-4)GlcNAc(b1-3)Gal(b1-4)GlcNAc(b1-2)Man(a1-3)[Gal(b1-4)GlcNAc(b1-3)Gal(b1-4)GlcNAc(b1-2)Man(a1-6)]Man(b1-4)GlcNAc(b1-4)GlcNAc
In short: as §1

[30] = molecular target: Gal(b1-4)GlcNAc(b1-3)Gal(b1-4)GlcNAc(b1-2)Man(a1-3)[Gal(b1-4)GlcNAc(b1-3)Gal(b1-4)GlcNAc(b1-2)Man(a1-6)]Man(b1-4)GlcNAc(b1-4)[Fuc(a1-6)]GlcNAc
In short: as §1

[31] = molecular target: Gal(b1-4)GlcNAc(b1-3)Gal(b1-4)GlcNAc(b1-2)[Gal(b1-4)GlcNAc(b1-3)Gal(b1-4)GlcNAc(b1-6)]Man(a1-6)[Gal(b1-4)GlcNAc(b1-3)Gal(b1-4)GlcNAc(b1-2)Man(a1-3)]Man(b1-4)GlcNAc(b1-4)GlcNAc
In short: as §1

[32] = molecular target: Gal(b1-4)GlcNAc(b1-3)Gal(b1-4)GlcNAc(b1-2)[Gal(b1-4)GlcNAc(b1-3)Gal(b1-4)GlcNAc(b1-6)]Man(a1-6)[Gal(b1-4)GlcNAc(b1-3)Gal(b1-4)GlcNAc(b1-2)Man(a1-3)]Man(b1-4)GlcNAc(b1-4)[Fuc(a1-6)]GlcNAc
In short: as §1

[33] = molecular target: Gal(b1-4)GlcNAc(b1-3)Gal(b1-4)GlcNAc(b1-3)Gal(b1-4)GlcNAc
In short: as §1

[34] = molecular target: Gal(b1-4)GlcNAc(b1-3)Gal(b1-4)GlcNAc(b1-3)Gal(b1-4)GlcNAc(b1-2)Man(a1-3)[Gal(b1-4)GlcNAc(b1-3)Gal(b1-4)GlcNAc(b1-3)Gal(b1-4)GlcNAc(b1-2)Man(a1-6)]Man(b1-4)GlcNAc(b1-4)GlcNAc
In short: as §1

[35] = molecular target: Gal(b1-4)GlcNAc(b1-3)Gal(b1-4)GlcNAc(b1-3)Gal(b1-4)GlcNAc(b1-2)Man(a1-3)[Gal(b1-4)GlcNAc(b1-3)Gal(b1-4)GlcNAc(b1-3)Gal(b1-4)GlcNAc(b1-2)Man(a1-6)]Man(b1-4)GlcNAc(b1-4)[Fuc(a1-6)]GlcNAc
In short: as §1

[36] = molecular target: Gal(b1-4)GlcNAc(b1-3)Gal(b1-4)GlcNAc(b1-3)Gal(b1-4)GlcNAc(b1-2)[Gal(b1-4)GlcNAc(b1-3)Gal(b1-4)GlcNAc(b1-3)Gal(b1-4)GlcNAc(b1-6)]Man(a1-6)[Gal(b1-4)GlcNAc(b1-3)Gal(b1-4)GlcNAc(b1-3)Gal(b1-4)GlcNAc(b1-2)Man(a1-3)]Man(b1-4)GlcNAc(b1-4)[Fuc(a1-6)]GlcNAc
In short: as §1

[37] = molecular target: Gal(b1-4)GlcNAc(b1-3)Gal(b1-4)GlcNAc(b1-3)Gal(b1-4)GlcNAc(b1-3)Gal(b1-4)GlcNAc(b1-2)Man(a1-3)[Gal(b1-4)GlcNAc(b1-3)Gal(b1-4)GlcNAc(b1-3)Gal(b1-4)GlcNAc(b1-3)Gal(b1-4)GlcNAc(b1-2)Man(a1-6)]Man(b1-4)GlcNAc(b1-4)GlcNAc
In short: as §1

B1: SspB C123 (Streptococcus gordonii), Q54186 (protein)
chain: MAHFHYSSLLAQPQINKEIKNEDGVDIDRTLVAKQSIGKFELKTEALTAGRPKTTSFVLVDPLPTGYKFDLDATKAASTGFDTTYDEASHTVTFKATDETLATYNADLTKPVETLHPTVVGRVLNDGATYTNNFTLTVNDAYGIKSNVVRVTTPGKPNDPDNPNNNYIKPTKVNKNKEGLNIDGKEVLAGSTNYYELTWDLDQYKGDKSSKEAIQNGFYYVDDYPEEALDVRPDLVKVADEKGNQVSGVSVQQYDSLEAAPKKVQDLLKKANITVKGAFQLFSADNPEEFYKQYVSTGTSLVITDPMTVKSEFGKTGGKYENKAYQIDFGNGYATEVVVNNVPKITPKKDVTVSLDPTSENLDGQTVQLYQTFNYRLIGGFIPQNHSEELEDYSFVDDYDQAGDQYTGNYKTFSSLNLTMKDGSVIKAGTDLTSQTTAETDATNGIVTVRFKEDFLQKISLDSPFQAETYLQMRRIAIGTFENTYVNTVNKVAYASAAALEHHHHHH
B1 was tested, and the “glycan array binding signal (z-score)” value [1] was 0.597, the “glycan array binding signal (z-score)” value [2] was 0.313 and the “glycan array binding signal (z-score)” value [3] was 0.473. The “glycan array binding signal (z-score)” value [4] was -0.498, the “glycan array binding signal (z-score)” value [5] was -0.183 and the “glycan array binding signal (z-score)” value [6] was 0.377. For the same binder, the “glycan array binding signal (z-score)” value [7] was -0.017, the “glycan array binding signal (z-score)” value [8] was -1.01 and the “glycan array binding signal (z-score)” value [9] was -0.319. For the same binder, the “glycan array binding signal (z-score)” value [10] was -0.815, the “glycan array binding signal (z-score)” value [11] was 1.68 and the “glycan array binding signal (z-score)” value [12] was -0.619. For the same binder, the “glycan array binding signal (z-score)” value [13] was 0.338, the “glycan array binding signal (z-score)” value [14] was -0.895 and the “glycan array binding signal (z-score)” value [15] was 0.023. For the same binder, the “glycan array binding signal (z-score)” value [16] was 0.942, the “glycan array binding signal (z-score)” value [17] was 1.41 and the “glycan array binding signal (z-score)” value [18] was -0.541. For the same binder, the “glycan array binding signal (z-score)” value [19] was -0.114, the “glycan array binding signal (z-score)” value [20] was -0.188 and the “glycan array binding signal (z-score)” value [21] was 0.076. For the same binder, the “glycan array binding signal (z-score)” value [22] was 0.366, the “glycan array binding signal (z-score)” value [23] was 0.477 and the “glycan array binding signal (z-score)” value [24] was -0.17. For the same binder, the “glycan array binding signal (z-score)” value [25] was -0.069, the “glycan array binding signal (z-score)” value [26] was 1.37 and the “glycan array binding signal (z-score)” value [27] was -0.647. The “glycan array binding signal (z-score)” value [28] was -1.78, the “glycan array binding signal (z-score)” value [29] was 1.58 and the “glycan array binding signal (z-score)” value [30] was -0.449. For the same binder, the “glycan array binding signal (z-score)” value [31] was 1.17, the “glycan array binding signal (z-score)” value [32] was 0.206 and the “glycan array binding signal (z-score)” value [33] was 1.51. The “glycan array binding signal (z-score)” value [34] was -0.046, the “glycan array binding signal (z-score)” value [35] was 1.26 and the “glycan array binding signal (z-score)” value [36] was 1.76. For the same binder, the “glycan array binding signal (z-score)” value [37] was 1.28.
